Test results: patent US5518912A, “Endopeptidase” (priority 1993, dated 1996)

system: endopeptidase from the skin of Xenopus laevis; assay: Substrate specificity analyses: cleavage of peptides and analogues by the purified endopeptidase (acid gel, HPLC/amino acid analysis); format: biochemical; conditions: reversed-phase HPLC and amino acid analyses

| Substance | peptide bond hydrolyzed by the endopeptidase (cleavage site) |
| --- | --- |
| PGLa | Gly^11 -Lys^12 |
| caerulein precursor fragment [CPF] | Leu^10 -Lys^11 |
| magainin 2-amide | Lys-Lys peptide bond at residues ten and eleven |
| xenopsin precursor fragment [XPF] | Gly^11 -Lys^12 |
